Data published in publication PMC9737020.
These are yes or no findings as the source states them, for the method shown. Binding seen in cells or lysates may run through a third protein. Some binding calls cover weakened binding; strength is not graded here.

Key:
[1] = biological target: T1, nucleosome assembly protein 1 like 1 (NAP1L1) (human (endogenous in CD34+-derived megakaryocytes)) (UniProt P55209); assay: co-IP; co-IP from lysate of CD34+-derived human megakaryocytes with anti-NAP1L1 on protein G magnetic beads; cells with or without LPS treatment
T1 sequence: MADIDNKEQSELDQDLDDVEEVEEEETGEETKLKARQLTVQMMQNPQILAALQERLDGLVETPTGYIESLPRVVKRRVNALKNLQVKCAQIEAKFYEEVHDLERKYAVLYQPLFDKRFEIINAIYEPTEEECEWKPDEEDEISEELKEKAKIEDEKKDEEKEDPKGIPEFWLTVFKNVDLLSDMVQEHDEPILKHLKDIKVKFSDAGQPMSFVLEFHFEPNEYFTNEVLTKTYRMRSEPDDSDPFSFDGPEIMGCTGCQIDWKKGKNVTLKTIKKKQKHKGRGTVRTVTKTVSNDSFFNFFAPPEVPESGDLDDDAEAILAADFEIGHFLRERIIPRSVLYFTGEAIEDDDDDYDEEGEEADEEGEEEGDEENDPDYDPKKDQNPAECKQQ

[2] = biological target: T2, nucleosome assembly protein 1 like 1 (NAP1L1) (human (endogenous in platelets)) (UniProt P55209); assay: co-IP; co-IP from human platelet whole-cell lysate with anti-NAP1L1 on protein G magnetic beads (4 h, 4 °C); immunoblot with anti-PDC-E2; controls: isotype IgG and beads only
T2 sequence: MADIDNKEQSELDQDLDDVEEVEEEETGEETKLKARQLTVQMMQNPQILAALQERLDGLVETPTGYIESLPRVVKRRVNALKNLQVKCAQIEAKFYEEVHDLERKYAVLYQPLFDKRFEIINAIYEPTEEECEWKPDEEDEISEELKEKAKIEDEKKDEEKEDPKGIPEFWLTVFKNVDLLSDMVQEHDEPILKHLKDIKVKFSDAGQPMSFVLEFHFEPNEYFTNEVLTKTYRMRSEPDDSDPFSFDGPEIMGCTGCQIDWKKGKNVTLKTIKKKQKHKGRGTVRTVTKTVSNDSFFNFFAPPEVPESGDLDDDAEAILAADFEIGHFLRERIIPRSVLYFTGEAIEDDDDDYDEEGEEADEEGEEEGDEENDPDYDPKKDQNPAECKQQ

B1: dihydrolipoyllysine-residue acetyltransferase component of pyruvate dehydrogenase complex (PDC-E2) (protein, UniProt P10515 87-647)
chain: SLPPHQKVPLPSLSPTMQAGTIARWEKKEGDKINEGDLIAEVETDKATVGFESLEECYMAKILVAEGTRDVPIGAIICITVGKPEDIEAFKNYTLDSSAAPTPQAAPAPTPAATASPPTPSAQAPGSSYPPHMQVLLPALSPTMTMGTVQRWEKKVGEKLSEGDLLAEIETDKATIGFEVQEEGYLAKILVPEGTRDVPLGTPLCIIVEKEADISAFADYRPTEVTDLKPQVPPPTPPPVAAVPPTPQPLAPTPSAPCPATPAGPKGRVFVSPLAKKLAVEKGIDLTQVKGTGPDGRITKKDIDSFVPSKVAPAPAAVVPPTGPGMAPVPTGVFTDIPISNIRRVIAQRLMQSKQTIPHYYLSIDVNMGEVLLVRKELNKILEGRSKISVNDFIIKASALACLKVPEANSSWMDTVIRQNHVVDVSVAVSTPAGLITPIVFNAHIKGVETIANDVVSLATKAREGKLQPHEFQGGTFTISNLGMFGIKNFSAIINPPQACILAIGASEDKLVPADNEKGFDVASMMSVTLSCDHRVVDGAVGAQWLAEFRKYLEKPITMLL
[1]
  binding: binds
[2]
  binding: binds
